Measured values from patent US20070167369A1, “Novel use of isolated polypeptide comprising four FAS-1 domains, EM1 domain and RGD motif” (KYUNGPOOK NATIONAL UNIVERSITY INDUSTRY-ACADEMIC COOPERATION …, priority 2004, published 2007).
No constants are given. Whether binding was seen depends on the method and setting. Some entries that bind do so weakly or less than the wild type.

Amino acid sequences for entries named in this document (tags omitted). A change or cut given only in a name is not applied to a line headed by its entry.
UniProt P06756: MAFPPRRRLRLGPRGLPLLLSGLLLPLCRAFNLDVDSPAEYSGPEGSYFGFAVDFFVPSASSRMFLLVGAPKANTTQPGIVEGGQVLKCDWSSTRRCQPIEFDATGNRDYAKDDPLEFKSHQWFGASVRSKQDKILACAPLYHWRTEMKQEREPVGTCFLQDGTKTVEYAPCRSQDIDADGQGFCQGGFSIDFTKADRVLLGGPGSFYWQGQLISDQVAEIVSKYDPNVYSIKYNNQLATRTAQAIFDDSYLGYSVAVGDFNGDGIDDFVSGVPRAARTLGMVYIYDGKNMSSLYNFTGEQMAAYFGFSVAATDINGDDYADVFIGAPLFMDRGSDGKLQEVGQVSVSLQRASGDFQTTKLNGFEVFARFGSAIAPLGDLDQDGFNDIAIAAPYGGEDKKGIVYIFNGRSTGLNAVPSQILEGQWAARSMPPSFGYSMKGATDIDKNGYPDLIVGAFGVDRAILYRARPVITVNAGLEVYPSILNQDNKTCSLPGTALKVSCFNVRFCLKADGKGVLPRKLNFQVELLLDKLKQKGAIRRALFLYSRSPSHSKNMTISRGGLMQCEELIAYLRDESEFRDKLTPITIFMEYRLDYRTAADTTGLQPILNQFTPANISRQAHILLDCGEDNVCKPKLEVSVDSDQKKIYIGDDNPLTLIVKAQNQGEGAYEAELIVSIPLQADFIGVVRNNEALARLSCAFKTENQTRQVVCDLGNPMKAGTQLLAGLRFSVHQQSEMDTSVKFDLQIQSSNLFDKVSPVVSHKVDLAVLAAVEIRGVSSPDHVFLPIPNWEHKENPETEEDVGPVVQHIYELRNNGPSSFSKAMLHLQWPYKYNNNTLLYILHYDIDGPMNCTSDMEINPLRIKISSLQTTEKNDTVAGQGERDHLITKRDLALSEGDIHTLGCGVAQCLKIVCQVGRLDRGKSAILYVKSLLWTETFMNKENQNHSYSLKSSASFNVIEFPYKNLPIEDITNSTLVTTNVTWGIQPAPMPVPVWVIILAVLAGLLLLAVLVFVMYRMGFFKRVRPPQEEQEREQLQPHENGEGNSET
UniProt P05106: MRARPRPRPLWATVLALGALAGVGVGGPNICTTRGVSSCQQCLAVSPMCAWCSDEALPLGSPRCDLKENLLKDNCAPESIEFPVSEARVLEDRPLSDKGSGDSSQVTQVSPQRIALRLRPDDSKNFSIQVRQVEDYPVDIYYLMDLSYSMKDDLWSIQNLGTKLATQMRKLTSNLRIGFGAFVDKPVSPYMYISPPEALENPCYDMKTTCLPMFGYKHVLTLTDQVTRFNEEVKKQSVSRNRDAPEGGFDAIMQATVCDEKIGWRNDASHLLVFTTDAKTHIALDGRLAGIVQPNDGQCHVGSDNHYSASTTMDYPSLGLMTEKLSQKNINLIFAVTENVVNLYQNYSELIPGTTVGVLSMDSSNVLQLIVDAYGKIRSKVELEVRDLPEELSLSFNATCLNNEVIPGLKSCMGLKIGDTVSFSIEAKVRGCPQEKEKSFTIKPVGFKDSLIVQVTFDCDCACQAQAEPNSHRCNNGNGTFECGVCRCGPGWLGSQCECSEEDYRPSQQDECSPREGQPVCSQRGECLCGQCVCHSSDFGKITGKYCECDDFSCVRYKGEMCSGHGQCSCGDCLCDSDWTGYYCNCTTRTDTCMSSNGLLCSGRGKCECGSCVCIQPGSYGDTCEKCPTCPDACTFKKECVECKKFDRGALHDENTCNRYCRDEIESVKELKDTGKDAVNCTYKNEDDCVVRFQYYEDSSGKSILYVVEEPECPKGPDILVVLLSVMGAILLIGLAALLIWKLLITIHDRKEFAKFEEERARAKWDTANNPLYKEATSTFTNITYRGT

Target: αvβ3 integrin (human) (UniProt P06756+P05106)
Assay: biotin-βig-h3 incubated with HUVECs, cell lysate blotted with streptavidin-HRP

B1: biotinylated βig-h3 (ligand)
chain: WYQRKICGKSTVISYECCPGYEKVPGEKGCPAALPLSNLYETLGVVGSTTTQLYTDRTEKLRPEMEGPGSFTIFAPSNEAWASLPAEVLDSLVSNVNIELLNALRYHMVGRRVLTDELKHGMTLTSMYQNSNIQIHHYPNGIVTVNCARLLKADHHATNGVVHLIDKVISTITNNIQQIIEIEDTFETLRAAVAASGLNTMLEGNGQYTLLAPTNEAFEKIPSETLNRILGDPEALRDLLNNHILKSAMCAEAIVAGLSVETLEGTTLEVGCSGDMLTINGKAIISNKDILATNGVIHYIDELLIPDSAKTLFELAAESDVSTAIDLFRQAGLGNHLSGSERLTLLAPLNSVFKDGTPPIDAHTRNLLRNHIIKDQLASKYLYHGQTLETLGGKKLRVFVYRNSLCIENSCIAAHDKRGRYGTLFTMDRVLTPPMGTVMDVLKGDNRFSMLVAAIQSAGLTETLNREGVYTVFAPTNEAFRALPPRERSRLLGDAKELANILKYHIGDEILVSGGIGALVRLKSLQGDKLEVSLKNNVVSVNKEPVAEPDIMATNGVVHVITNVLQPPANRPQERGDELADSALEI
modifications: biotinylated (sites not given)
- binding: binds
